# From US6339070B1, “Gene construct encoding a heterologous prodrug-activating enzyme and a cell targeting moiety” (Zeneca Limited, priority 1997, dated 2002)
# B1: (A5B7 Fab-CPG2)2 fusion protein: chimaeric A5B7 anti-CEA Fab, heavy chain Fd linked via (G4S)3 linker to CPG2 R6, dimerised through CPG2 (antibody)
# heavy: EVKLVESGGGLVQPGGSLRLSCATSGFTFTDYYMNWVRQPPGKALEWLGFIGNKANGYTTEYSASVKGRFTISRDKSQSILYLQMNTLRAEDSATYYCTRDRGLRFYFDYWGQGTTLTVSSASTKGPSVFPLAPCSRSTSESTAALGCLVKDYFPEPVTVSWNSGALTSGVHTFPAVLQSSGLYSLSSVVTVPSSNFGTQTYTCNVDHKPSNTKVDKTVGGGGSGGGGSGGGGSQKRDNVLFQAATDEQPAVIKTLEKLVNIETGTGDAEGIAAAGNFLEAELKNLGFTVTRSKSAGLVVGDNIVGKIKGRGGKNLLLMSHMDTVYLKGILAKAPFRVEGDKAYGPGIADDKGGNAVILHTLKLLKEYGVRDYGTITVLFNTDEEKGSFGSRDLIQEEAKLADYVLSFEPTSAGDEKLSLGTSGIAYVQVQITGKASHAGAAPELGVNALVEASDLVLRTMNIDDKAKNLRFQWTIAKAGQVSNIIPASATLNADVRYARNEDFDAAMKTLEERAQQKKLPEADVKVIVTRGRPAFNAGEGGKKLVDKAVAYYKEAGGTLGVEERTGGGTDAAYAALSGKPVIESLGLPGFGYHSDKAEYVDISAIPRRLYMAARLIMDLGAGK
# light: QTVLSQSPAILSASPGEKVTMTCRASSSVTYIHWYQQKPGSSPKSWIYATSNLASGVPARFSGSGSGTSYSLTISRVEAEDAATYYCQHWSSKPPTFGGGTKLEIKRTVAAPSVFIFPPSDEQLKSGTASVVCLLNNFYPREAKVQWKVDNALQSGNSQESVTEQDSKDSTYSLSSTLTLSKADYEKHKVYACEVTHQGLSSPVTKSFNRGEC
# Tests used:
# Format in all cases: cell-based
# [1] = tested on: LoVo; test: Fusion protein expression rate of recombinant LoVo clones (ELISA)
# [2] = tested on: Colo 320DM; test: Fusion protein expression rate of recombinant Colo 320DM clones (ELISA)
# [3] = tested on: recombinant HCT116 inducible cell line; test: Doxycycline induction of fusion protein from inducible recombinant HCT116 cell line; conditions: 48 h
molecule,measurement,setting,value
B1,fusion protein expression rate,[1]; LoVo clone B9,8370 ng/10^6cells/24 h
same,fusion protein expression rate,[1]; LoVo clone C1,7350 ng/10^6cells/24 h
same,fusion protein expression rate,[1]; LoVo clone C7,10770 ng/10^6cells/24 h
same,fusion protein expression rate,[1]; LoVo clone F12,2983 ng/10^6cells/24 h
same,fusion protein expression rate,[1]; LoVo clone G10,4140 ng/10^6cells/24 h
same,fusion protein expression rate,[2]; Colo 320DM clone B3,10540 ng/10^6cells/24 h
same,fusion protein expression rate,[2]; Colo 320DM clone B9,885 ng/10^6cells/24 h
same,fusion protein expression rate,[2]; Colo 320DM clone B10,3090 ng/10^6cells/24 h
same,fusion protein expression rate,[2]; Colo 320DM clone F12,35660 ng/10^6cells/24 h
same,fusion protein expression rate,[2]; Colo 320DM clone G4,4720 ng/10^6cells/24 h
same,fusion protein in the supernatant,"[3]; clone F11, induced with 2 μg/ml doxycycline",120 ng/mL
same,fusion protein in the supernatant,"[3]; clone F11, non-induced cells",below 1 ng/ml
